According to US20140011811A1, “MYOSIN BINDING PROTEIN-C FOR USE IN METHODS RELATING TO DIASTOLIC HEART FAILURE” (The United States Government as represented by the …, priority 2011, published 2014):
For at least one compound, name, drawing or mass did not settle the structure.

Legend:
DOCA-salt mice = assay: Echocardiography (mitral pulse wave Doppler flow and tissue Doppler imaging) in DOCA-salt mouse model of diastolic dysfunction; format: in vivo
Description: Previously, we have shown that the DOCA-salt mouse model leads to mild hypertension, NOS uncoupling, myocardial oxidative stress, and diastolic dysfunction. A gradual and mild elevation in blood pressure was induced by unilateral nephrectomy, subcutaneous implantation of a controlled release deoxycorticosterone acetate (DOCA) pellet (0.7 mg/d; Innovative Research of America, Sarasota, Fla.), and substituting drinking water with 1.05% saline. Control animals underwent a sham operation, had placebo pellet implantation, and received water without salt.
Mice were divided into two groups which received a control diet (sham N=7; DOCA-salt N=10) and two groups which received a BH4 supplemental diet of 5 mg BH4/day (Research Diets Inc, New Brunswick, N.J.; sham+BH4 N=8; DOCA-salt+BH4 N=8). The supplemental diet began on day 11 after surgery, and continued until day 18, when the mice were analyzed and sacrificed.
Ten days after surgery, we employed echocardiography to characterize the diastolic dysfunction. Mitral pulse wave Doppler flow and tissue Doppler imaging (TDI) were perfomed using the Vevo 770 high-resolution in vivo imaging system (Visual Sonics, Toronto, Canada). Mice were anesthetized with 1-1.5% isoflurane until a heart rate of around 350-390 beats/min was achieved because measure of diastolic function are sensitive to heart rate and loading conditions. M-mode images in the parasternal long axis and the left ventricle (LV) short-axis views at the mid-papillary level were taken. Measurements were averaged from five consecutive beats during expiration. The images for each mouse were recorded for at least 5 s (30-40 cardiac cycles) from which three to five representative cycles with the highest quality imaging were selected. Percent fractional shortenin (% FS) were calculated as 100×(LVEDd)-(LVESd)/(LVEDd) and percent LV ejection fraction (%EF) was calculated as 100×[(7/2.4+LVEDd)×LEDd^3]−[(7/2.4+LVESd)×LVESd^3]/[(7/2.4+LVEDd)×LEDd^3]. Doppler measurements were made at the tips of the mitral leaflets for diastolic filling profiles in the apical four-chamber view. Mitral inflow velocities, peak early (E) and late (A) were measured by conventional pulsed-wave Doppler. TDI was used to determine the mitral annulus longitudinal velocities (Sm, E′, and A′). Baseline images before treatment were acquired to confirm diastolic dysfunction in DOCA-salt mice. Subsequently, the mice were fed with BH4, followed by echocardiography at day 18.

[1] = tested on: myosin binding protein C (MyBP-C); assay: Western immunoblotting of S-glutathionylation of MyBP-C in cardiac myofilaments from treated DOCA-salt and sham mice; format: in vivo, mouse; details: BH4 diet 5 mg BH4/day, day 11 to 18, groups sham, DOCA-salt
MyBP-C = assay: Pro-Q Diamond gel stain of phosphorylation of MyBP-C in myofibrils from treated DOCA-salt and sham mice; format: in vivo, mouse; details: DOCA-salt or sham mice treated as in Examples 1 and 2
Description: DOCA-salt or sham mice were administered ranolazine or BH4 as essentially described in Examples 1 and 2, respectively. Pro-Q Diamond (Invitrogen) gel stain was used to detect changes in phosphorylation states of MyBP-C. Myofibrils were prepared from DOCA-salt and sham models of the mice hearts, and pellets were solubilized in a non-reducing 2× laemmli buffer (4% SDS, 20% glycerol, 0.004% bromophenol blue, and 0.125 M Tris HCl pH 6.8). 25 mM N-ethylmaleimide (NEM) was added to the standard rigor buffer with Triton X-100, the standard rigor wash buffer, and the 2× Laemmli buffer. An RC-DC assay (BioRad) was used to determine protein concentrations. Samples were diluted at 1:1 ratio in reducing sample buffer (8 M urea, 2 M thiourea, 0.05 M tris pH 6.8, 75 mM DTT, 3% SDS, and 0.05% bromophenol blue and approximately 10 μg of protein was loaded on to a 12% resolving 1D SDS-PAGE gel. The gels were stained and destained with Pro-Q Diamond according to the manufacturer's recommendations prior to the imaging with a Typhoon 9410 scanner (GE Healthcare). Coomassie R-250 staining was used to normalize protein load to both actin and the whole lane. Optical density of the proteins was determined using ImageQuant TL (GE Healthcare) software and results were exported to Excel for further analysis.

[2] = all groups (sham, DOCA-salt, sham+BH4, DOCA-salt+BH4), heart rate ~370 beats/min
[3] = seven days of BH4 administration in sham and DOCA-salt mice

C[C@H](O)[C@H](O)[C@H]1CNc2nc(N)[nH]c(=O)c2N1 [BH4, tetrahydrobiopterin]
mitral A velocity (DOCA-salt mice; [2]): not significantly changed in all groups
mitral E velocity (DOCA-salt mice; [2]): not significantly changed in all groups
mitral E/A ratio (DOCA-salt mice; [2]): not significantly changed in all groups
LV ejection fraction (DOCA-salt mice; [3]): did not affect
fractional shortening (DOCA-salt mice; [3]): did not affect
E′/A′, sham vs. sham+BH4 (DOCA-salt mice; sham mice, BH4 supplemental diet 5 mg BH4/day, day 11 to 18): did not show any significant differences
MyBP-C glutathionylation normalized to total protein loadings [1]: significantly increased in the DOCA-salt group compared to all other groups, which were not significantly different from each other
phosphorylation levels of MyBP-C (MyBP-C): did not affect
